# Measurements published in article PMC12370185.
# The list shows a part of the results.
# Key:
# Assay in all cases: EMSA with sequencing
# Settings in all cases: 10 mM Tris-Cl pH 7.5, 50 mM NaCl, 1 mM DTT, 0.25 mg/ml BSA, 2 mM MgCl2, 0.025% Nonidet P-40, 5% glycerol; 28 nM nucleosome library; 10 min on ice then 30 min …; high values mean tight binding; double strand, one strand shown
# KLF4 + histone octamer = system: KLF4 + histone octamer
# OCT4 + histone octamer = system: OCT4 + histone octamer
# SOX2 + histone octamer = system: SOX2 + histone octamer
# [1] = system: c-MYC + MAX + histone octamer
Sequence,binding signal (log2 relative supershift) (KLF4 + histone octamer),binding signal (log2 relative supershift) (OCT4 + histone octamer),binding signal (log2 relative supershift) (SOX2 + histone octamer),binding signal (log2 relative supershift) [1]
GATGGACCCTATACGCGGCCTGGGAGGGGAGGAGGGGAAGGAAGGAGAGCTAGAGGCCAGGGCAGAAAGCCAACAGCTGGCTTGGACGGGGCATTGTGTGATTTGGAAGGTGCCATGTGTCCCAGGGGAGTGGCATTTTCACCTCCAACCTCCTCTCTGCTCATCTGGACCCCACCCCTCCCCTTTAGCTGGCTCCACACTCCCTCCCTGTGCCAGTCGGATAGTGTTCC,2.82,0.316,0.288,0.414
GATGGACCCTATACGCGGCACCTCTGTTGCACTCTGCTTGCCCATACAAGCCTGTTTCAGGGGTGGATTATTTCTTTATAATGCAGCTTTGAACCATGTCTGAAATGTGTAAGAAAGACAACCAGATGGGCTGGATAAACTGCTTTTGTCTGAGCTGCAGCCAGACTCTGCTCAGTGGGTGTGGACAGGCTGCCAGCCTCACTGAGAAAGTGCCAGTCGGATAGTGTTCC,2.67,0.364,1.35,1.04
GATGGACCCTATACGCGGCCTAGGGCCTTGGCAGGCCTCTGTGTGCTGTGATAATCACACCCTGAAGATTATTATGACATTGGAGGCATGCCCGGTCTGGCTCCAGACAAGGTGGTGCATGCAATATCATGGAGCTGCAGCAGTGTCACTTAGCCACATGTAGGGCAGAATGATGCTAGGCATACCCTGACAGATCTCTGGGTGACATAATGCCAGTCGGATAGTGTTCC,2.27,1.11,0.905,1.18
GATGGACCCTATACGCGGCTCCCCAGCCGCAGAGGACATGCGGACATGTGTGGGCAGGTCCCTTCTGACCCATGGCAGGTCCCTGTTGATGGTCAGGCTGGGGATCGTGCAGGCCTTTTTGTTATCCCGGGGTCTCCTTCTGAGCTATGCTAACACTGTGCAGTGCCTATAACCAAGAAGAAAAAGGAAAGAAACAGAGGAAACTCAAAGTGCCAGTCGGATAGTGTTCC,1.38,0.0233,0.28,0.755
